Measured values taken from patent publication US20220289852A1 (ACCELERON PHARMA, published 2022).
No constants are given. Whether binding was seen depends on the method and setting. Some binding calls cover weakened binding; strength is not graded here. Sequences can lack the tags named with a protein.

Experiments:
[1] = target: T1, GDF11 (UniProt O95390); experiment: SPR (Biacore), legend of FIG. 6
T1 sequence (looked up): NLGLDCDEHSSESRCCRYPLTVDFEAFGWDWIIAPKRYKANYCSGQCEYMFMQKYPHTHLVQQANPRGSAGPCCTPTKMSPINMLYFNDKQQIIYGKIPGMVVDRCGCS

[2] = target: T2, BMP6 (UniProt P22004 375-513, limits assumed); experiment: SPR (Biacore), legend of FIG. 6
T2 sequence (looked up): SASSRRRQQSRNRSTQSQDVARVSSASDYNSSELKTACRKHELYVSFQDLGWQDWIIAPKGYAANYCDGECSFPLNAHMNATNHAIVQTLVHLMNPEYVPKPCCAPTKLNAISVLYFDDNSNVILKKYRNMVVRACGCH

[3] = target: T3, activin B (UniProt P09529 293-407); experiment: SPR (Biacore), legend of FIG. 6
T3 sequence (looked up): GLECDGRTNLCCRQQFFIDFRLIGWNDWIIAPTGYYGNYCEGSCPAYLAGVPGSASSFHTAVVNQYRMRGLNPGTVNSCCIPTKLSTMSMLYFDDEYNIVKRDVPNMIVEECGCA

[4] = target: T4, BMP9 (UniProt Q9UK05); experiment: SPR (Biacore), legend of FIG. 6
T4 sequence (looked up): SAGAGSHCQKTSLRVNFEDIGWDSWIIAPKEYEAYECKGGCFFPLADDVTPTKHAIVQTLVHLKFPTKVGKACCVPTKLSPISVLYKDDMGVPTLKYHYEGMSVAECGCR

[5] = target: T5, BMP10 (UniProt O95393); experiment: SPR (Biacore), legend of FIG. 6
T5 sequence (looked up): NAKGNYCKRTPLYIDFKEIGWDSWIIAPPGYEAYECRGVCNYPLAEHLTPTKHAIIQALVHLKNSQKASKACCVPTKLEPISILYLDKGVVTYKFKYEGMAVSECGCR

[6] = target: T6, GDF3 (UniProt Q9NR23); experiment: SPR (Biacore), legend of FIG. 6
T6 sequence (looked up): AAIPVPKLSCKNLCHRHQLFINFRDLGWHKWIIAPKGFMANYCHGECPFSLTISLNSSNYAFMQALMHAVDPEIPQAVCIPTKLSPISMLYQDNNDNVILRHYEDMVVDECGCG

[7] = target: T7, GDF8 (UniProt O14793); experiment: SPR (Biacore), legend of FIG. 6
T7 sequence (looked up): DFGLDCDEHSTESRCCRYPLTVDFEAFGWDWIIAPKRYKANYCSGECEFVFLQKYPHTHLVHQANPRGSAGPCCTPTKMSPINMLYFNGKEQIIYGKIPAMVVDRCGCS

[8] = target: T8, BMP5 (UniProt P22003 317-454, limits assumed); experiment: SPR (Biacore), legend of FIG. 6
T8 sequence (looked up): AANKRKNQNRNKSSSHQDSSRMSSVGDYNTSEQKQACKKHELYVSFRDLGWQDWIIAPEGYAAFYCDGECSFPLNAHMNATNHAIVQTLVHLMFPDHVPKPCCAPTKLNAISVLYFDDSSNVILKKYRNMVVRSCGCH

[9] = target: T1, GDF11; experiment: SPR (Biacore), worded summary of the table
[10] = target: T2, BMP6; experiment: SPR (Biacore), worded summary of the table
[11] = target: T3, activin B; experiment: SPR (Biacore), worded summary of the table
[12] = target: T4, BMP9; experiment: SPR (Biacore), worded summary of the table
[13] = target: T5, BMP10; experiment: SPR (Biacore), worded summary of the table
[14] = target: T6, GDF3; experiment: SPR (Biacore), worded summary of the table
[15] = target: T7, GDF8; experiment: SPR (Biacore), worded summary of the table
[16] = target: T8, BMP5; experiment: SPR (Biacore), worded summary of the table

Measured: binding

B1: ActRIIB-Fc homodimer (Fc fusion)
chain: GRGEAETRECIYYNANWELERTNQSGLERCEGEQDKRLHCYASWRNSSGTIELVKKGCWLDDFNCYDRQECVATEENPQVYFCCCEGNFCNERFTHLPEAGGPEVTYEPPPTAPT
notes: also called ActRIIB-Fc homodimeric complex; ActRIIB homodimer; not shown: linker and Fc domain of the homodimer
binds: all assays above
